These are yes or no findings as the source states them, for the method shown. Binding seen in cells or lysates may run through a third protein. Some results given as binding are weak or reduced against the parent protein; the word gives no strength.

Sequences of proteins named here, by UniProt entry; tags and fusion partners are left off. A change or cut given only in a name is not applied to a line headed by its entry.
UniProt Q2FFA2: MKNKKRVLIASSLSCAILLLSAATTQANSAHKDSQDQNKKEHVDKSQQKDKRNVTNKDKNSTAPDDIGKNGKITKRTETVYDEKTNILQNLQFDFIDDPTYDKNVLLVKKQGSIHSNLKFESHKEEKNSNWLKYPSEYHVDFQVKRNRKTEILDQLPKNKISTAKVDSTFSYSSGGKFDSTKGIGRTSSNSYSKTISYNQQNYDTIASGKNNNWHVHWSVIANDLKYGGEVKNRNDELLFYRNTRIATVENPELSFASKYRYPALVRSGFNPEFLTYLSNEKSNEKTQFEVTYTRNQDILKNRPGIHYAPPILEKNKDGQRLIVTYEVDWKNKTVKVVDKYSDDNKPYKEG

The target of assay [1] is T1, LukH_MRSA252 (Staphylococcus aureus MRSA252) (UniProt Q6GF49).
T1 sequence: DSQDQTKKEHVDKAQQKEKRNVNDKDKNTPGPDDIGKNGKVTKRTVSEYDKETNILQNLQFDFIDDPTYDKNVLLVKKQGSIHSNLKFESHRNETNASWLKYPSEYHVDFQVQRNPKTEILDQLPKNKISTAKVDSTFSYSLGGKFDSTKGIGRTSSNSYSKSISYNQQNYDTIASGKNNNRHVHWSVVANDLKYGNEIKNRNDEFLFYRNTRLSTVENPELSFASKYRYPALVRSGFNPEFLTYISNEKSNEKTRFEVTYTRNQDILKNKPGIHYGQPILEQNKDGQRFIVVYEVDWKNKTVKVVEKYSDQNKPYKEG
Kind of assay: co-expression in E. coli; IMAC through NusA/His6 on LukG, with un-tagged LukH co-purified; the complex was kept through tag removal and cation exchange.

For assay [2], the target named is LukH_H19 (Staphylococcus aureus H19) (UniProt Q2FFA2). The assay is described as above.

B1: LukG_MRSA252 (protein)
chain: EIKSKITTVSEKNLDGDTKMYTRTATTSDTEKKISQSLQFNFLTEPNYDKETVFIKAKGTIGSGLKILNPNGYWNSTLRWPGSYSVSIQNVDDNNNSTNVTDFAPKNQDESREVKYTYGYKTGGDFSINRGGLTGNITKEKNYSETISYQQPSYRTLIDQPTTNKGVAWKVEAHSINNMGHDHTRQLTNDSDDRVKSEIFSLTRNGNLWAKDNFTPKNKMPVTVSEGFNPEFLAVMSHDKNDKGKSRFIVHYKRSMDDFKLDWNKHGFWGYWSGENHVDQKEEKLSALYEVDWKTHDVKLIKTINDKEQK
In the case of B1, the binding entry in assay [1] is “binds”.

B2: LukG_H19 (protein)
chain: NSEIKQVSEKNLDGETKMYTRTATTSDSQKNITQSLQFNFLTEKNYDKETVFIKAKGTIGSGLRILEPNGYWNSTLRWPGSYSVSIQNVDDNNNTNVTDFAPKNQDESREVKYTYGYKTGGDFSINQGGLTGNITKESNYSETISYQQPSYRTLIDQPTTNKGVAWKVEAHLINNMGHDHTRQLTNDSDDRVKSEIFSLTRNGNLWAKDNFTPKNKMPVTVSEGFNPEFLAVMSHDKKDEGKSKFVVHYKRSMDEFKIDWNKHGFWGYWSGENHVDKKEEKLSALYEVDWKTHNVKFIKVLNDKEKK
Regarding B2, the binding entry in assay [2] is recorded as “binds”.

For the origin of these results see US20160340415A1.
